Assay results: paper PMC6299095
These are yes or no findings as the source states them, for the method shown. Binding seen in cells or lysates may run through a third protein. Some entries that bind do so weakly or less than the wild type. For part of these data: Tags and fused reporters may be left off the sequences shown.

Chains of the proteins cited; added tags and fusions are not shown.
UniProt Q14839: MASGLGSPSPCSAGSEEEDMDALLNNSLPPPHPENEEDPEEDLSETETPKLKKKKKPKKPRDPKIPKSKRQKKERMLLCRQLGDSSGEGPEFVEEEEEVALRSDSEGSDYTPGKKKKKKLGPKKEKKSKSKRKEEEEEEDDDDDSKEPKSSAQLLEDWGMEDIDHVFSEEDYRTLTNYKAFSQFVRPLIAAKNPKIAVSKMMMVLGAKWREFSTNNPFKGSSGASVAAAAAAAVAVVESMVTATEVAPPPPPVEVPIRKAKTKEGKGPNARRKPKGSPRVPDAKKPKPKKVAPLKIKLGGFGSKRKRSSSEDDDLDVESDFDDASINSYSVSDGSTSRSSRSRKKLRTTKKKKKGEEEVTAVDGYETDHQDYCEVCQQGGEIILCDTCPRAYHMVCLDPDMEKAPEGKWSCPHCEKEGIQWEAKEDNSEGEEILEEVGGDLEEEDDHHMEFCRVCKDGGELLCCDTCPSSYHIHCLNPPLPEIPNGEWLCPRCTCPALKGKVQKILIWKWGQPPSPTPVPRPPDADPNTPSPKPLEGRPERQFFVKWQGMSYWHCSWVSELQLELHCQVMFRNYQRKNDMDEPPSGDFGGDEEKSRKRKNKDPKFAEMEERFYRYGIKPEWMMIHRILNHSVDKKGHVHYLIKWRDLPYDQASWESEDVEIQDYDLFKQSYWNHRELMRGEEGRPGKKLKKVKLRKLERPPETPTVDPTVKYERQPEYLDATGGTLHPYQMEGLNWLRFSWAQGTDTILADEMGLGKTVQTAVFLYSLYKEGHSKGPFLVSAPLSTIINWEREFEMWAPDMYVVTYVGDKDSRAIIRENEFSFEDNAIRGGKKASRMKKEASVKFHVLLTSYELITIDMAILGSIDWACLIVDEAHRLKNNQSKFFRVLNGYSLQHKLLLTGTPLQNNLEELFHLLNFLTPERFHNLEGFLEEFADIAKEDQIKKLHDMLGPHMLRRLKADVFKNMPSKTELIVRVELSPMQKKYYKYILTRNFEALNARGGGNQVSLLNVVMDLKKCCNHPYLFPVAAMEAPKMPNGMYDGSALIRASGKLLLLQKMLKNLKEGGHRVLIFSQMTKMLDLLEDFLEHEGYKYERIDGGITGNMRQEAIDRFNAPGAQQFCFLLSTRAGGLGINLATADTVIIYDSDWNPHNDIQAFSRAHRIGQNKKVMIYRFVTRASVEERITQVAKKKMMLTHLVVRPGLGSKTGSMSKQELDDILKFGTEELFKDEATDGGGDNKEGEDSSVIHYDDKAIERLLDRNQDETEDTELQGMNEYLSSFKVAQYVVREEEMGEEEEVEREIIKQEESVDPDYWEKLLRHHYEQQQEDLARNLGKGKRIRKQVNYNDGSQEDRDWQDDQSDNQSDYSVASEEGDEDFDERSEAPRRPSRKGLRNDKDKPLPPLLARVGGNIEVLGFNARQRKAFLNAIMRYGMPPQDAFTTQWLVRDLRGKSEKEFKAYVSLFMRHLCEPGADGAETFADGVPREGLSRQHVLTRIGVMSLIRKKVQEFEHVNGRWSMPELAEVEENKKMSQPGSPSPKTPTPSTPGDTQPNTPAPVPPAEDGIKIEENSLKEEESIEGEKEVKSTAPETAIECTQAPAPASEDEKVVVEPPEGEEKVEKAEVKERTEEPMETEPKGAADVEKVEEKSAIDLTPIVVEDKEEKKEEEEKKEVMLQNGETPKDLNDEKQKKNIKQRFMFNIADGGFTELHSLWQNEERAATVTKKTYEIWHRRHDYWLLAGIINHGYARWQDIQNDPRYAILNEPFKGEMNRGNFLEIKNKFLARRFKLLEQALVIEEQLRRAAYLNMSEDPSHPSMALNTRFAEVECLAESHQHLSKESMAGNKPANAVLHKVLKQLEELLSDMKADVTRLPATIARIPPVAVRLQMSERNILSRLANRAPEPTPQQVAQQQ
UniProt Q13547: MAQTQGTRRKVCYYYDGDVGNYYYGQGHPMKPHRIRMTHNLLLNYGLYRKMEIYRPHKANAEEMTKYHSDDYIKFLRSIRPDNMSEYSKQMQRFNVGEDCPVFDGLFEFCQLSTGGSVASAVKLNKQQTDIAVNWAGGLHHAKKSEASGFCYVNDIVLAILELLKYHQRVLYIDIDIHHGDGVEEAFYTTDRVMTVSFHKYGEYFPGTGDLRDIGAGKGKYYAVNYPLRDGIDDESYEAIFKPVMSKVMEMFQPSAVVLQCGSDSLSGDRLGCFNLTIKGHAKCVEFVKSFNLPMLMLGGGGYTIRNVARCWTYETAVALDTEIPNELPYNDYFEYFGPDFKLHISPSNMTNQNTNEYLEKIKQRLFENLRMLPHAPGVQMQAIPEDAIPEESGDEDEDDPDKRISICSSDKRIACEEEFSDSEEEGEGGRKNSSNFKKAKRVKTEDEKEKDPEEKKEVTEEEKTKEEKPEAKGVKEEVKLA
UniProt Q92769: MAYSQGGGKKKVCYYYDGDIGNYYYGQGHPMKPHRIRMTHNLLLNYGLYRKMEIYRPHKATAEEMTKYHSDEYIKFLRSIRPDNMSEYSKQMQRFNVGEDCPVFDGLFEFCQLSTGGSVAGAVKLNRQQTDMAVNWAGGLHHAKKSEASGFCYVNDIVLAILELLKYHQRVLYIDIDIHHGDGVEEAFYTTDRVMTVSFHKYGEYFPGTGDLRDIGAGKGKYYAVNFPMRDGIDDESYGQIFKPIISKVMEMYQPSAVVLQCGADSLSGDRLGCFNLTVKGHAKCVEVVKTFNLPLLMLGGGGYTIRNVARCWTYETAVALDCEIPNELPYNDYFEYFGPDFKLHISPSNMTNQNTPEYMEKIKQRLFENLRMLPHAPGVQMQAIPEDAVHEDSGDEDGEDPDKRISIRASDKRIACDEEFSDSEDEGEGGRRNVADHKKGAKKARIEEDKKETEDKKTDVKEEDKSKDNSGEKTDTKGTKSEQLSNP

Assays:
[1] = target: T1, TRPS1, ectopically overexpressed in MDA-MB-231 cells (UniProt Q9UHF7); assay: co-IP; Co-IP from MDA-MB-231 cells with ectopically overexpressed TRPS1; western blot
T1 sequence: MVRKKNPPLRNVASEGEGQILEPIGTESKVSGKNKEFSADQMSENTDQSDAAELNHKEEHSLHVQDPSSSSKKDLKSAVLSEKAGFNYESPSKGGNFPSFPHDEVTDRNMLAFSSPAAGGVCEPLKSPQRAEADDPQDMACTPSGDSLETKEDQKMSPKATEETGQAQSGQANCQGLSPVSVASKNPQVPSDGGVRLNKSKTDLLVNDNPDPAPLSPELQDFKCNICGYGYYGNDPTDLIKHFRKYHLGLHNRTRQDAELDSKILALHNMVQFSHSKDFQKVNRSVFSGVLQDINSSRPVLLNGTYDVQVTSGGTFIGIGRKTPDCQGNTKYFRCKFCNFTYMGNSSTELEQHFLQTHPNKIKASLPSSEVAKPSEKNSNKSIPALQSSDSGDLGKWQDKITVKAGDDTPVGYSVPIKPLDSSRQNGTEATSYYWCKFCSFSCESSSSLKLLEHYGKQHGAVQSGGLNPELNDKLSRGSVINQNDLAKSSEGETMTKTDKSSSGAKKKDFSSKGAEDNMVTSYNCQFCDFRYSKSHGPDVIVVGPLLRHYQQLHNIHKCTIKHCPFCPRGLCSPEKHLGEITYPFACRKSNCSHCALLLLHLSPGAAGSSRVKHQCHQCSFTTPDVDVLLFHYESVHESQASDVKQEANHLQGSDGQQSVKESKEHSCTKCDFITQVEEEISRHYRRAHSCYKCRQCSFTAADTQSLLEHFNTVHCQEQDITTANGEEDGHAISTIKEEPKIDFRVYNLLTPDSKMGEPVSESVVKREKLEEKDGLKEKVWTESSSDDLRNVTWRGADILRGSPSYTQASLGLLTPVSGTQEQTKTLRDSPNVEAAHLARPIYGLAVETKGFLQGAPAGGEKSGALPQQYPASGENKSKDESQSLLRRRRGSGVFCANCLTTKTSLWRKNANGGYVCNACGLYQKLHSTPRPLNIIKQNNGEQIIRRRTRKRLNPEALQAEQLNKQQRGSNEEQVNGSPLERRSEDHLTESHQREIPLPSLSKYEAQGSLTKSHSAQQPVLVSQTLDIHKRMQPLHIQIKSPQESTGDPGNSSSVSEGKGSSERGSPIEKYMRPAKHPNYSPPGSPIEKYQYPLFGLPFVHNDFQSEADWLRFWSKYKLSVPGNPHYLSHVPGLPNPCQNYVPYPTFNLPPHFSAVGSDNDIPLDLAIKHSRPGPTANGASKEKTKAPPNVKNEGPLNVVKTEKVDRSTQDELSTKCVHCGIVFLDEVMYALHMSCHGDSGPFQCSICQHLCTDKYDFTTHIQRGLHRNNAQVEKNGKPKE

[2] = target: T2, Transcriptional repressor GATA binding 1 (TRPS1), endogenous (human (endogenous in T47D and MCF7)) (UniProt Q9UHF7); assay: co-IP; endogenous Co-IP with anti-TRPS1 antibody (R&D systems) and Dynabeads Protein G, control polyclonal IgG; T47D and MCF7 cells; western blot
T2 sequence: T1 sequence

[3] = target: T3, Flag-tagged full-length TRPS1 (UniProt Q9UHF7); assay: co-IP; exogenous Co-IP: Flag-tagged TRPS1 or truncates transfected into 293T cells with PEI, lysed after 48 h, incubated with flag agarose; western blot of endogenous partners
T3 sequence: T1 sequence

Measured: binding

CHD4 (chromodomain helicase DNA-binding protein 4) (from UniProt Q14839 1-1912)
binds: [1] | [2] | [3]

HDAC1 (from UniProt Q13547 1-482)
binds: [1] | [2] | [3]

HDAC2 (from UniProt Q92769 1-488)
binds: [1] | [2] | [3]
